# Assay results reported in PubChem BioAssay AID1259354 (Paczesny and Yang Labs, IUPUI and University of Michigan, 2018).
# Sequences of proteins named here, by UniProt entry; tags and fusion partners are left off. A change or cut given only in a name is not applied to a line headed by its entry.
# UniProt Q01638: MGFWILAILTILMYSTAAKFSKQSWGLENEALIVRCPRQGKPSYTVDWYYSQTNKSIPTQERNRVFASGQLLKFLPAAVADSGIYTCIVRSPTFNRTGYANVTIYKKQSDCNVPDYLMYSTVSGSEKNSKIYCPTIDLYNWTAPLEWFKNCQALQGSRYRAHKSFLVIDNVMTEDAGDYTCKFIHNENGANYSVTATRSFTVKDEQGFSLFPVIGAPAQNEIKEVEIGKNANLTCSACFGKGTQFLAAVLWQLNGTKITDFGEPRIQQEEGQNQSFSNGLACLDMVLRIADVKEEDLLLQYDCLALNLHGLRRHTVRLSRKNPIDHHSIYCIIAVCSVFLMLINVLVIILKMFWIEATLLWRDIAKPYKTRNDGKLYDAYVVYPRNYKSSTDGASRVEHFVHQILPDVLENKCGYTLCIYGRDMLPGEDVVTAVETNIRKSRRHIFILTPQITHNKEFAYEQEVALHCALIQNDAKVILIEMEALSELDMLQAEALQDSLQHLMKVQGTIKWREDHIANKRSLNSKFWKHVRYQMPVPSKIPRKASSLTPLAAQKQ
# Values joined by “and” are separate entries in the source; they are usually repeats but may differ in a detail not shown here. Equal entries are not always repeated. About 1,800 (2.3%) of roughly 78,000 compounds were called active. Inconclusive means that the source gave no clear call. Such entries were picked first, then a sample of the others. Rule as the data show it: active = inhibition above about 30%; inconclusive = mostly about 10% to 28%; inactive = weaker than that.
# Molecular target: Interleukin-1 receptor-like 1 (Homo sapiens) (UniProt Q01638)
# Assay: blocks human ST2 binding to IL-33, primary screen, biochemical, AlphaLISA (AID 1259354)
# Conditions: AlphaLISA ST2-Fc/biotin-IL-33 interaction, 1 h; at 17 µM, stronger effect = higher value
row,Structure (SMILES),inhibition
1,Cc1ccnc(NC(c2cccc(C)n2)c2ccc3cccnc3c2O)c1 (stereo not drawn),inconclusive: 20%
2,CCc1nnc(NC(=O)c2sc3nc(C)cc(COC)c3c2N)s1,inconclusive: 12%
3,Cc1ccccc1NS(=O)(=O)c1ccc(C)c(C(N)=O)c1,inconclusive: 20%
4,COc1cc(CN2CCCCCC2)cc(OC)c1OC,inconclusive: 14%
5,C=CCOc1ccccc1/C=C1\C(=O)N(c2cccc(Cl)c2)N=C1C,inconclusive: 20%
6,COc1ccc(-c2ccc(NC(=O)CN)c(F)c2)cc1Cl,inconclusive: 11%
7,Cc1cccnc1N1CCN(C(=O)c2cccc(-c3ccc(O)cc3)c2)CC1,inconclusive: 18%
8,O=C(NCCCN1CCOCC1)c1ccc2c(c1)N(Cc1ccc(Cl)cc1)C(=O)CS2,inactive
9,c1ccc(-c2n[nH]c(C3CC3)n2)c(-c2nn[nH]n2)c1,inconclusive: 16%
10,Cc1cnc(Cn2cnc3c(C)cccc3c2=O)[nH]1,inactive
11,Cc1cc(S(=O)(=O)N2CCN(S(=O)(=O)c3ccc(Cl)c(C)c3)C(C)C2)ccc1Cl (stereo not drawn),inactive
12,Cc1cc(C(=O)NC2C3CC4CC(C3)CC2C4)ccc1[N+](=O)[O-] (stereo not drawn),inactive
13,Cc1csc(C(C)NC(=O)c2cn(C3CCCCC3)nn2)n1 (stereo not drawn),inactive
14,CCn1cc(CN2CCC(N3CCCC3=O)CC2)c2ccccc21,inactive
15,CC1=NN(c2ccc(S(N)(=O)=O)cc2)C(=O)C1,inactive
16,O=C(CN(Cc1ccc(Br)cc1)S(=O)(=O)c1ccccc1)NCc1cccnc1,inconclusive: 14%
17,Cc1nccn1CCC(=O)N1CCN(Cc2ccc(F)cc2)C(=O)C1,inconclusive: 10%
18,CCn1cnnc1CN(C)C(=O)/C=C/c1ccccc1,inconclusive: 20%
19,C#CCNC(=O)CC[C@@H]1CNC(=O)[C@@H]2C[C@H](NC(=O)Nc3cccc(C(F)(F)F)c3)CN12,inconclusive: 16%
20,O=C(CN1C(=O)/C(=C\c2ccc(C(F)(F)F)cc2)Sc2ccccc21)N1CCCCC1,inconclusive: 21%
21,O=C(Nc1cc(Br)ccc1O)c1cc(-c2cccs2)on1,inconclusive: 29%
22,N[C@H](C(=O)O)[C@H](O)C(=O)O,inconclusive: 14%
23,CN(C(=O)c1cc(-c2cccc(Cl)c2)on1)c1ccccc1,inactive
24,COc1cccc(-c2cc(C(F)(F)F)nc(-n3ccnc3)n2)c1,inconclusive: 12%
25,COc1ccc(C(=O)OC(C)C(O)c2ccc(OC)cc2)cc1 (stereo not drawn),inactive

row,Structure (SMILES),inhibition
1,COc1ccc2c(C)c(Cc3ccccc3)c(=O)oc2c1C,inactive
2,CCCn1ccnc1-c1c(-c2ccccc2)ncn1Cc1c(C)n[nH]c1C,inconclusive: 13%
3,N#CC1=C(N)N(c2cccc(Br)c2)C2=C(C(=O)CCC2)C1c1cccs1 (stereo not drawn),inconclusive: 13%
4,COc1ccccc1-n1cc(C(=O)N2CC(c3cccnc3)C2)cn1,inconclusive: 10%
5,COc1ccc(C2C(C(=O)OC3CCCCC3)=C(C)Nc3nnnn32)cc1 (stereo not drawn),inactive
6,FC(F)(F)c1cc(-c2ccccc2)nc(-n2ccnc2)n1,inconclusive: 11%
7,O=[N+]([O-])c1cccc(S(=O)(=O)/C=C/c2ccccc2)c1,inconclusive: 25%
8,CC(=O)c1cccc(OCc2cc(C(=O)N3CCCCCCC3)n[nH]2)c1,inconclusive: 15%
9,O=C(O)c1ccc(NC2=CC(=NS(=O)(=O)c3ccc(Cl)cc3)c3ccccc3C2=O)cc1,active: 48%
10,CN(Cc1ccc2nsnc2c1)C(=O)CCN1CCCO1,inconclusive: 13%
11,CNc1oc(C)nc1S(=O)(=O)c1ccccc1,inconclusive: 29%
12,NC(=O)c1ccccc1NC(=O)c1ccc(C(=O)Nc2ccccc2C(N)=O)cc1,inconclusive: 12%
13,CCc1ccccc1OCCN(C)C(=O)c1c(O)cccc1F,inconclusive: 11%
14,COc1ccc(C2SCCN2S(=O)(=O)c2cccc(C)c2)cc1 (stereo not drawn),inactive
15,Cc1ccc(N(C(=O)C(C)(C)C)C2C=CS(=O)(=O)C2)cc1C (stereo not drawn),inactive
16,O=C(NC1CCCCCC1)C1CCN(S(=O)(=O)c2cccs2)CC1,inconclusive: 12%
17,COc1ccc(Cl)cc1C(=O)Nc1ccc2oc(-c3cccnc3)nc2c1,inconclusive: 14%
18,NC(=O)c1cc(N)ccc1N1CCCCC1,inconclusive: 23%
19,CCN1C(=O)N(CCc2ccccc2)C2(CCN(CCc3ccccc3)CC2)C1=O,active: 33%
20,Cc1ccccc1N=Cc1ccc(Br)c([N+](=O)[O-])c1,inconclusive: 24%
21,O=C(CSc1c2c(nc3ccc(Cl)cc13)CCCC2)NCc1ccco1,inconclusive: 21%
22,O=C(Nc1c(C(=O)O)oc2ccccc12)c1ccccc1,inactive
23,CCOC(=O)c1[nH]c(C)c(C(=O)OCc2ccccc2)c1C,inactive
24,O=c1c2ccccc2ncn1CCCOc1ccc(OCc2ccccc2)cc1,inactive
25,CC(=O)Nc1ccc(CN2CC[C@H](c3nc4ccccc4[nH]3)C2)cc1,inconclusive: 10%

row,Structure (SMILES),inhibition
1,O=C(c1ccc(-c2ccsc2)nc1)N1CCCC(c2ccccc2)CC1 (stereo not drawn),inconclusive: 10%
2,Cc1nn(C)c(C)c1CCC(=O)N1CC(c2ccccn2)C1,inactive
3,COc1ccc(C)cc1S(=O)(=O)N1CCN(c2nc(C)cc(N3CCOCC3)n2)CC1,inactive
4,CCOCCCNC(=O)C1CCN(c2ccc(-c3cccs3)nn2)CC1,inconclusive: 13%
5,CCCn1c2ccccc2c2nnc(SC(C)C)nc21,inconclusive: 19%
6,CC(Cc1c[nH]c2ccccc12)NC(=O)c1ccncc1 (stereo not drawn),inconclusive: 17% and inconclusive: 11%
7,Cc1nc2c(c(=O)n1C)CCN(Cc1cn[nH]c1-c1ccccc1)CC2,inactive
8,O=C(CN(c1ccccc1)S(=O)(=O)c1ccccc1)N1CCN(c2ccc(F)cc2)CC1,inactive
9,COc1cc(F)ccc1CN1CC[C@@H](N2CCN(CCc3ccccc3)CC2)[C@H](O)C1,inactive
10,CCn1cc(C(=O)NCCCN2CCCCCC2)c2cc(OC)c(OC)cc2c1=O,inconclusive: 10%
11,Cn1c(=O)c2c(SCC(=O)NC3CCCC3)nc(-c3cccs3)nc2n(C)c1=O,inactive
12,CN(C)c1ccc(CNC2(Cc3cc(C(C)(C)C)on3)COC2)cc1,inconclusive: 12%
13,COc1ccc(C(=O)C2CCCN(C(=O)c3n[nH]c4ccccc34)C2)cc1OC (stereo not drawn),inconclusive: 14%
14,COc1ccc(C(=O)N2CCCC(CCC(=O)Nc3ccc(F)cc3C)C2)o1 (stereo not drawn),inactive
15,c1ccc(-c2nc3c(c(N4CCN(Cc5cnn(-c6ccccc6)c5)CC4)n2)CCC3)cc1,inconclusive: 25%
16,Cc1cccc(N(C)S(=O)(=O)c2cccc3cccnc23)c1,inconclusive: 16%
17,NNC(=O)CC1CC(c2cccc([N+](=O)[O-])c2)=NN1 (stereo not drawn),inconclusive: 20%
18,N#Cc1c(=N)nc2oc3ccccc3c3cc(-c4ccccc4)[nH]c1c23,inconclusive: 19%
19,Clc1ccc(OCCn2nc3ccccc3n2)cc1,inactive
20,Cc1ccc2nc(-c3ccc(C)o3)c(Nc3ccc4c(c3)OCO4)n2c1,inconclusive: 17%
21,O=C1Nc2cc(Cl)ccc2C(=O)N2CCCCC12 (stereo not drawn),inconclusive: 26%
22,O=C(C1CCC(O)CC1)N1CCCC(CCc2ccc(F)cc2)C1 (stereo not drawn),inconclusive: 19%
23,O=C(Cn1c(=O)n(-c2ccc(F)cc2)c(=O)c2sccc21)NCCC1=CCCCC1,inconclusive: 18%
24,COc1ccc(C2=NN(CC(=O)NCc3ccc4c(c3)OCO4)C(=O)CC2)cc1,inconclusive: 17%
25,Cc1ccccc1NC(=O)CSC1=Nc2ccccc2C2=NC(c3ccccc3)C(=O)N12 (stereo not drawn),inactive

# Retrieved by structure from the list above:
row,Structure (SMILES),inhibition
14,COc1ccc(C(=O)N2CCCC(CCC(=O)Nc3ccc(F)cc3C)C2)o1 (stereo not drawn),inactive
11,Cn1c(=O)c2c(SCC(=O)NC3CCCC3)nc(-c3cccs3)nc2n(C)c1=O,inactive
24,COc1ccc(C2=NN(CC(=O)NCc3ccc4c(c3)OCO4)C(=O)CC2)cc1,inconclusive: 17%
25,Cc1ccccc1NC(=O)CSC1=Nc2ccccc2C2=NC(c3ccccc3)C(=O)N12 (stereo not drawn),inactive

# Going on with the list:

row,Structure (SMILES),inhibition
1,O=c1c(-c2ccc(O)cc2)coc2cc(O)cc(O)c12,inconclusive: 15%
2,NCC(=O)Nc1ccc(-c2cccc3ccsc23)cc1F,inconclusive: 10%
3,CCOC(=O)c1c(NC(=O)Cn2c(=O)sc3ccccc32)sc2c1CCCC2,inconclusive: 11%
4,CC1=C(C(=O)OC2CCCC2)C(c2ccccc2)C2=C(CC(C)(C)CC2=O)N1 (stereo not drawn),inconclusive: 19%
5,COc1ccc(OCCCOc2ccc([N+](=O)[O-])cc2Cl)cc1,inconclusive: 23%
6,Nc1ncnc2nc(Sc3ncnc4ccccc34)[nH]c12,inactive
7,CC1=NN(C(=O)c2ccccc2)C(O)(c2ccc(Br)cc2)C1 (stereo not drawn),inactive
8,O=C(c1cccc(Cl)c1)N1N=C(C(F)(F)F)CC1(O)c1ccc(Cl)cc1 (stereo not drawn),inconclusive: 22%
9,Cc1cccc(-c2nsc(SCC(=O)Nc3ccc4c(c3)OCCO4)n2)c1,inconclusive: 16%
10,O=C(Cc1ccccc1)c1ccc(-c2ccn[nH]2)cc1,inactive
11,Cc1ccccc1-c1c(C(F)(F)F)oc2c(C)c(O)ccc2c1=O,inactive
12,COc1ccccc1C1C(C(N)=O)=C(C)Nc2nc(SCc3ccccc3F)nn21 (stereo not drawn),inconclusive: 10%
13,CCN(C(=O)c1cc(-c2ccccc2)n[nH]1)C1CCS(=O)(=O)C1 (stereo not drawn),inactive
14,COc1ccc(C2N(c3nccs3)C(=O)C3CCCN32)c(OC)c1 (stereo not drawn),inconclusive: 14%
15,Cc1ccccc1NC(=O)c1cccc(Cl)c1Cl,inactive
16,O=C(NCC1CCCN(C2CCN(c3ccc(F)cc3)CC2)C1)c1cccs1 (stereo not drawn),inconclusive: 21%
17,Cc1cc(C)n2nc(SC(C)C(=O)NCc3ccc4c(c3)OCO4)nc2n1 (stereo not drawn),inactive
18,O=C(O)CCc1nn2c3ccccc3n(CC(=O)c3cccs3)c2nc1=O,inconclusive: 18%
19,O=C(c1cn(CCN2CCCCC2)nn1)N1CCSCC1,inactive
20,CN1CCCC2(CC1)CCN(C(=O)CCc1ccccc1F)CC2,inconclusive: 13%
21,COc1ccc(C(O)=Cc2nc3cc(C)ccc3oc2=O)cc1OC,inactive
22,Cn1c(=O)c2c(ncn2CC(=O)N2CCCCCC2)n(C)c1=O,inactive
23,CNC[C@H](O)c1cccc(O)c1,inconclusive: 10%
